# Results from patent publication US20260284208A1, “SYSTEM” (Oxford University Innovation Limited, priority 2023, published 2026).
# The source gives many values for each of these; only a part stands here.
# System: library of 8,380 IKZF3 degrons (ZF-eGFP/mCherry reporter) in Jurkat cells
# Test: Pooled library screen (FACS, NGS, limma voom LogFC of positive vs negative read counts)
# Assay type: cell-based, human
# Procedure: A library of 8,380 IKZF3 degrons was cloned into pLVX-Sprout to create the eGFP/mCherry protein degradation reporter plasmid pool. A lentivirus pool was then generated using the Lenti-X lentiviral vector production method.
# Jurkat cells were transduced at a multiplicity of infection of <0.3 with the lentivirus vector library in order to maximise the number of cells with a single integration. Transductions were carried out in 6 well TC-treated cell culture dishes (Falcon) with 3×10^6 cells per well. Cells were incubated for 2 days at 37° C. and 5% CO2 before the supernatant was removed and replaced with fresh media. 6 days post-transduction, mCherry+ cells were isolated via FACS using the FACS Aria Fusion (BD) in a buffer containing PBS (Gibco), 2 mM EDTA (Gibco), 25 mM HEPES (Sigma) and 1% BSA (Sigma). 8 days later, cells were treated with DMSO or a thalidomide analog for 18 hours at 37° C. and 5% CO2. mCherry+GFPlow and NOT(mCherry+GFPlow) cells were sorted by FACS using the FACS Aria Fusion (BD). DMSO treated cells were used to set the mCherry+GFPlow gate and dead cells were excluded from sorting by staining cells with 1 μg/mL DAPI (ThermoFisher). gDNA was isolated using the Maxwell RSC 48 (Promega). gDNA from cells that were unsorted and untreated were also isolated to determine the library representation on the day of compound treatment. Throughout the screen >600× coverage of the library was maintained. 3 biological replicates were carried out with a new transduction taking place each time.
# A two-step PCR was used where the first PCR (PCR1) amplified the integrated degron sequence from gDNA and the second PCR (PCR2) added Illumina adaptors and barcodes to permit multiplexing. See Supp F for PCR1 and PCR2 primers. Q5 Hot Start High-Fidelity 2× Master Mix (New England Biolabs) was used for both PCRs. Sufficient gDNA was amplified in PCR1 in order to maintain >600× coverage and amplicons were purified using solid phase reversible immobilization (SPRI) beads (Beckman Coulter). Purified PCR1 products were analysed on the Tapestation 4200 (Agilent) to confirm purity prior to proceeding to PCR2. Sufficient PCR1 product was amplified in PCR2 in order to maintain >600× coverage and amplicons were run on a 2% agarose TAE gel. Target bands were excised and purified using the NucleoSpin Gel and PCR Clean-up Kit (Machery Nagel). Amplicons were analysed on the Tapestation 4200 and quantified using Qubit dsDNA HS kit (ThermoFisher). PCR products were pooled and sequenced as paired-reads on the NovaSeq (Illumina) using a SP2 200 cycles kit (Illumina).
# Count distributions, percentage of read mapping, library coverage and replicate correlation per sample were assessed for QC purposes.
# To carry out the library screen, we used the same plasmid construct as in our earlier flow cytometry assays, but pooling all 8,380 mutants together into one Jurkat population, ensuring a copy number of one plasmid per cell (FIG. 4B). […] These GFP-negative cells were then separated from the remaining GFP-positive population using fluorescence activated cell sorting (FACS). These two populations were then sequenced and the relative abundance of every mutant in both populations compared to provide a log FC value for each mutant sequence. This value indicated how frequently a sequence is observed in the GFP-negative population relative to the GFP-positive population, and therefore how effective a degron it is for that particular IMID compound.
smiles,measurement,setting,value
"O=C1CCC(N2C(=O)c3ccccc3C2=O)C(=O)N1 (centres unmarked) [A32, 2-(2,6-dioxopiperidin-3-yl)isoindoline-1,3-dione]",A32_logFC,"Degron-ID 900, SEQ ID NO 190, 46F_47E_49P_50I_52G_53A_54A_55F_67L",3.111
same,A32_logFC,"Degron-ID 951, SEQ ID NO 175, 46F_47E_49P_50V_52G_53A_54N_55F_67L",3.164
same,A32_logFC,"Degron-ID 1740, SEQ ID NO 197, 46F_47I_49E_50I_52G_53A_54A_55F_67L",3.086
same,A32_logFC,"Degron-ID 1753, SEQ ID NO 176, 46F_47I_49E_50I_52G_53A_54Q_55F_67L",3.164
same,A32_logFC,"Degron-ID 1792, SEQ ID NO 173, 46F_47I_49E_50V_52G_53A_54P_55F_67L",3.168
same,A32_logFC,"Degron-ID 1872, SEQ ID NO 177, 46F_47I_49P_50I_52G_53A_54P_55F_67L",3.163
same,A32_logFC,"Degron-ID 2232, SEQ ID NO 174, 46F_47L_49E_50I_52G_53A_54P_55F_67L",3.168
same,A32_logFC,"Degron-ID 2352, SEQ ID NO 164, 46F_47L_49P_50I_52G_53A_54P_55F_67L",3.184
same,A32_logFC,"Degron-ID 2896, SEQ ID NO 141, 46F_47Q_49D_50I_52G_53A_54T_55F_67L",3.249
same,A32_logFC,"Degron-ID 2897, SEQ ID NO 172, 46F_47Q_49D_50I_52G_53A_54V_55F_67L",3.169
same,A32_logFC,"Degron-ID 2936, SEQ ID NO 179, 46F_47Q_49D_50V_52G_53A_54T_55F_67L",3.156
same,A32_logFC,"Degron-ID 2940, SEQ ID NO 37, 46F_47Q_49E_50I_52G_53A_54A_55F_67L",3.644
same,A32_logFC,"Degron-ID 2945, SEQ ID NO 196, 46F_47Q_49E_50I_52G_53A_54G_55F_67L",3.088
same,A32_logFC,"Degron-ID 2946, SEQ ID NO 168, 46F_47Q_49E_50I_52G_53A_54H_55F_67L",3.172
same,A32_logFC,"Degron-ID 2947, SEQ ID NO 29, 46F_47Q_49E_50I_52G_53A_54I_55F_67L",3.675
same,A32_logFC,"Degron-ID 2951, SEQ ID NO 46, 46F_47Q_49E_50I_52G_53A_54N_55F_67L",3.591
same,A32_logFC,"Degron-ID 2952, SEQ ID NO 19, 46F_47Q_49E_50I_52G_53A_54P_55F_67L",3.722
same,A32_logFC,"Degron-ID 2954, SEQ ID NO 23, 46F_47Q_49E_50I_52G_53A_54R_55F_67L",3.704
same,A32_logFC,"Degron-ID 2955, SEQ ID NO 16, 46F_47Q_49E_50I_52G_53A_54S_55F_67L",3.748
same,A32_logFC,"Degron-ID 2957, SEQ ID NO 153, 46F_47Q_49E_50I_52G_53A_54V_55F_67L",3.222
same,A32_logFC,"Degron-ID 2959, SEQ ID NO 146, 46F_47Q_49E_50I_52G_53A_54Y_55F_67L",3.234
same,A32_logFC,"Degron-ID 2976, SEQ ID NO 191, 46F_47Q_49E_50Q_52G_53A_54T_55F_67L",3.098
same,A32_logFC,"Degron-ID 2980, SEQ ID NO 34, 46F_47Q_49E_50V_52G_53A_54A_55F_67L",3.65
same,A32_logFC,"Degron-ID 2981, SEQ ID NO 28, 46F_47Q_49E_50V_52G_53A_54C_55F_67L",3.686
same,A32_logFC,"Degron-ID 2982, SEQ ID NO 193, 46F_47Q_49E_50V_52G_53A_54D_55F_67L",3.091
same,A32_logFC,"Degron-ID 2983, SEQ ID NO 25, 46F_47Q_49E_50V_52G_53A_54E_55F_67L",3.698
same,A32_logFC,"Degron-ID 2985, SEQ ID NO 156, 46F_47Q_49E_50V_52G_53A_54G_55F_67L",3.214
same,A32_logFC,"Degron-ID 2987, SEQ ID NO 24, 46F_47Q_49E_50V_52G_53A_54I_55F_67L",3.703
same,A32_logFC,"Degron-ID 2989, SEQ ID NO 158, 46F_47Q_49E_50V_52G_53A_54L_55F_67L",3.208
same,A32_logFC,"Degron-ID 2993, SEQ ID NO 12, 46F_47Q_49E_50V_52G_53A_54Q_55F_67L",3.772
same,A32_logFC,"Degron-ID 2994, SEQ ID NO 22, 46F_47Q_49E_50V_52G_53A_54R_55F_67L",3.706
same,A32_logFC,"Degron-ID 2996, SEQ ID NO 18, 46F_47Q_49E_50V_52G_53A_54T_55F_67L",3.745
same,A32_logFC,"Degron-ID 2997, SEQ ID NO 20, 46F_47Q_49E_50V_52G_53A_54V_55F_67L",3.711
same,A32_logFC,"Degron-ID 3003, SEQ ID NO 142, 46F_47Q_49N_50I_52G_53A_54E_55F_67L",3.243
same,A32_logFC,"Degron-ID 3012, SEQ ID NO 21, 46F_47Q_49N_50I_52G_53A_54P_55F_67L",3.709
same,A32_logFC,"Degron-ID 3040, SEQ ID NO 192, 46F_47Q_49N_50V_52G_53A_54A_55F_67L",3.094
same,A32_logFC,"Degron-ID 3041, SEQ ID NO 157, 46F_47Q_49N_50V_52G_53A_54C_55F_67L",3.208
same,A32_logFC,"Degron-ID 3061, SEQ ID NO 13, 46F_47Q_49P_50I_52G_53A_54C_55F_67L",3.771
same,A32_logFC,"Degron-ID 3063, SEQ ID NO 43, 46F_47Q_49P_50I_52G_53A_54E_55F_67L",3.607
same,A32_logFC,"Degron-ID 3065, SEQ ID NO 26, 46F_47Q_49P_50I_52G_53A_54G_55F_67L",3.691
same,A32_logFC,"Degron-ID 3070, SEQ ID NO 41, 46F_47Q_49P_50I_52G_53A_54M_55F_67L",3.616
same,A32_logFC,"Degron-ID 3072, SEQ ID NO 32, 46F_47Q_49P_50I_52G_53A_54P_55F_67L",3.651
same,A32_logFC,"Degron-ID 3073, SEQ ID NO 36, 46F_47Q_49P_50I_52G_53A_54Q_55F_67L",3.649
same,A32_logFC,"Degron-ID 3077, SEQ ID NO 30, 46F_47Q_49P_50I_52G_53A_54V_55F_67L",3.672
same,A32_logFC,"Degron-ID 3096, SEQ ID NO 167, 46F_47Q_49P_50Q_52G_53A_54T_55F_67L",3.174
same,A32_logFC,"Degron-ID 3100, SEQ ID NO 27, 46F_47Q_49P_50V_52G_53A_54A_55F_67L",3.688
same,A32_logFC,"Degron-ID 3103, SEQ ID NO 14, 46F_47Q_49P_50V_52G_53A_54E_55F_67L",3.762
